From PubChem BioAssay AID540276 (National Center for Advancing Translational Sciences (NCATS), 2011)
“And” between values parts separate entries of the source, which are not always exact repeats. Equal values may be shown once. The whole screen tested about 300,000 compounds, of which about 5,400 (1.8%) were called active. Inconclusive results, whose numbers are uncertain, are shown with a selection of clear calls. Calls come from the whole dose curve; tested in HEK293 cells. Potencies beside an inconclusive call are fits to weak or partial responses and may not hold up.

Experiment: qHTS for inhibitors of binding or entry into cells for Marburg Virus
Conditions: Marburg virus pseudotyped entry inhibition, cell reporter; activity change, negative = inhibition: at 37.8 µM (top of the series) unless noted
% is set by controls: 0 for no effect and ±100 for the full control effect; potency is the fitted concentration of half-maximal effect.

Row | SMILES | Potency | activity change, negative = inhibition
1 | CN(CCOc1ccc(Cl)cc1)Cc1cccc(S(=O)(=O)N(C)C)c1 | inconclusive: 11.2 µM [inhibitor, single point] | –
2 | Cc1ccc(C(=O)Nc2ccc(Cl)cc2C(=O)c2ccccc2)cc1 | – | inactive: -22.8%
3 | CCc1cc2c(nc1CC)CCN(CCC(C)=NO[C@H](C)c1cn([C@H](CO)Cc3ccccc3)nn1)C2 | – | inactive: -15.7% [at 14.2 µM]
4 | Cc1cc(NCCCN2CCOCC2)n2nc(C)c(-c3ccc(F)cc3)c2n1 | inconclusive: 12.6 µM [inhibitor, partial curve, poor fit] | –
5 | CC(C)(C)C(=O)CC(=O)Nc1ccc(Cl)c(N)c1 | inconclusive: 10.3 µM [activator, partial curve, poor fit] | –
6 | Clc1ccc(-c2noc3ncnc(N4CCCCC4)c23)cc1 | – | inactive: 11.7% [at 46.1 µM]
7 | CCOc1cccc(C(=O)Nc2ccccc2N2CCN(C(=O)C(C)C)CC2)c1 | inconclusive: 15.8 µM [inhibitor, partial curve, poor fit] | –
8 | CCOc1ccc(NC(C(=O)Nc2cccc(C(C)=O)c2)c2ccccc2)cc1 (stereo not given) | inconclusive: 1.26 µM [inhibitor, single point] | –
9 | Cc1ccc(-c2csc3nc(CN(C)Cc4ccccc4)[nH]c(=O)c23)cc1 | inconclusive: 20 µM [inhibitor, partial curve, poor fit] | –
10 | N=c1c2c(n(Cc3ccc(F)cc3)c3c1CCC3)CCC2 | inconclusive: 5.8 µM [inhibitor, full curve, poor fit] | –
11 | CC(C(=O)Nc1c2c(cc3c1CCC3)CCC2)N1CCCC1 (stereo not given) | inconclusive: 29.1 µM [inhibitor, single point] | –
12 | CCOC(=O)c1c[nH]c2c(Cl)ccc(Cl)c2c1=O | inconclusive: 14.1 µM [activator, single point] | –
13 | CCOC(=O)c1c(CN2CCCCC2C)oc2ccc(OC)cc12 (stereo not given) | inconclusive: 14.6 µM [inhibitor, single point] | –
14 | COc1cc(NC(=S)N2CCN(S(C)(=O)=O)CC2)cc(OC)c1 | – | inactive: 3.83% [at 46.1 µM]
15 | N/C(=N\OC(=O)/C=C/c1ccccc1Cl)c1ccccn1 | active: 9.2 µM | –
16 | O=C(Nc1ccc(F)cc1)C1C(c2ccccc2)C1(Cl)Cl (stereo not given) | – | inactive: -20.9%
17 | CCCCC(=O)Nc1ccc(C(=O)NCCc2ccccc2)cc1 | inconclusive: 0.891 µM [inhibitor, single point] | –
18 | O=C(Cc1cccs1)Nc1cccc([N+](=O)[O-])c1 | inconclusive: 5.62 µM [activator, partial curve] | –

Row | SMILES | Potency | activity change, negative = inhibition
19 | Cc1ccccc1NC(=O)CSc1nc2ccc(NC(=O)c3ccco3)cc2s1 | – | inactive: -0.719% [at 46.1 µM]
20 | Cc1cc(C(C)(C)C)cc(C)c1CC1=NCCN1 | active: 7.94 µM | –
21 | CC(=O)OC(/C(O)=C(\C#N)c1nc2ccccc2[nH]1)c1ccccc1 (stereo not given) | – | inactive: -21.3%
22 | COc1cccc(NC(=O)Nc2cc(-c3cn4cccnc4n3)ccc2OC)c1 | – | inactive: -0.436% [at 46.1 µM]
23 | COc1ccccc1N1CCN(C(CNC(=O)Oc2ccccc2)c2cccnc2)CC1 (stereo not given) | inconclusive: 5.62 µM [activator, single point] | –
24 | Cc1[nH]c2ccccc2c1/C=N/NC(=S)NC(C)C | inconclusive: 11.2 µM [inhibitor, partial curve] | –
25 | COC(=O)CC1c2ccccc2C(Cc2ccc3c(c2)OCO3)=C(C)N1C(=O)OC (stereo not given) | inconclusive: 75 nM [inhibitor, full curve, poor fit] and inconclusive: 94.4 nM [inhibitor, partial curve, poor fit] | –
26 | COc1cccc(NC(=O)CN(C)S(=O)(=O)c2ccc3c(c2)n(C)c(=O)c(=O)n3C)c1 | – | inactive: -4.27% [at 46.1 µM]
27 | CCCCN(C(=O)CSc1nnc(-c2ccccc2)n1C)c1c(N)n(Cc2ccccc2)c(=O)[nH]c1=O | inconclusive: 5.62 µM [activator, single point] | –
28 | CCOC(=O)Cn1nnnc1CN(Cc1cccs1)Cc1cc2cc(C)cc(C)c2[nH]c1=O | inactive | –
29 | CCOc1ccccc1OCCOCCN1CC(C)OC(C)C1 (stereo not given) | inconclusive: 6.31 µM [activator, partial curve, poor fit] | –
30 | CCN(CCCCOC(=O)c1ccc(OC)c(OC)c1)C(C)Cc1ccc(OC)cc1 (stereo not given) | inconclusive: 20.6 µM [inhibitor, single point] | –
31 | COc1cc(CC(C)N)c(OC)cc1I (stereo not given) | inconclusive: 16.4 µM [inhibitor, single point] and inconclusive: 4.47 µM [inhibitor, partial curve] | –
32 | Cc1cc(C)c2nc(NNC(=O)c3ccc(S(=O)(=O)N4CCCC(C)C4)cc3)sc2c1 (stereo not given) | inconclusive: 20.6 µM [inhibitor, single point] | –
33 | O=C(NCCCN1CCOCC1)c1ccc2c(c1)N(Cc1cccc(Cl)c1)C(=O)CS2 | inconclusive: 20 µM [inhibitor, partial curve, poor fit] | –
34 | Cc1ccc(C(=O)NCCSc2ccc(Cl)cc2)cc1S(=O)(=O)Nc1ccccc1 | inconclusive: 16.4 µM [inhibitor, partial curve, poor fit] | –
35 | CCOCCn1cnc2sc(C(=O)NCC(=O)OCC)c(C)c2c1=O | inconclusive: 35.5 µM [activator, partial curve, poor fit] | –

As entered above:
activity change, negative = inhibition, `Cc1ccccc1NC(=O)CSc1nc2ccc(NC(=O)c3ccco3)cc2s1` is entered as inactive: -0.719% [at 46.1 µM]
Potency, `Cc1cc(C(C)(C)C)cc(C)c1CC1=NCCN1` is entered as active: 7.94 µM
